In the supplement of paper PMC11098740:
Structures can show the parent of a compound that is named as a salt. ± gives the standard deviation of the averaged measurements. This is one part of the list. Repeats are few or missing, and single values can be far off.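 Pooled together, 41 HAP1 clones carry intronic fluorescent tags on 61 cancer-associated proteins, and each clone is recognized by its imaging pattern. Measurements are benchmarked against DMSO-treated control wells. dBET6, a BRD4 degrader, served as the positive control.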

Target: BRD4 (intron 10 mScarlet tag, HAP1) (UniProt O60885)
Assay: BRD4 median nuclear fluorescence intensity change vs DMSO (log2 fold change); higher = more BRD4 protein
Settings: 6 h

| SMILES | BRD4 median nuclear fluorescence intensity change (log2) |
| --- | --- |
| CC(C)C[C@H](NC(=O)[C@H](Cc1ccccc1)NC(=O)c1cnccn1)B(O)O [bortezomib] (0.00595 µM) | 0.112 ± 0.13 |
| CC(=O)Nc1cccc(-n2c(=O)n(C3CC3)c(=O)c3c(Nc4ccc(I)cc4F)n(C)c(=O)c(C)c32)c1 [trametinib] (10 µM) | 0.0828 |
| CC[C@]1(O)C[C@@H]2CN(CCc3c([nH]c4ccccc34)[C@@](C(=O)OC)(c3cc4c(cc3OC)N(C)[C@H]3[C@@](O)(C(=O)OC)[C@H](OC(C)=O)[C@]5(CC)C=CCN6CC[C@]43[C@@H]65)C2)C1 [vinblastine] (20 µM) | 0.0812 |
| Cc1ccc(Cl)c(Nc2ccccc2C(=O)O)c1Cl [meclofenamate (sodium)] (10 µM) | 0.0355 |
| CC(=O)O[C@H]1C[C@@H]2CC[C@@H]3[C@H](CC[C@@]4(C)[C@H]3C[C@H]([N+]3(C)CCCCC3)[C@@H]4OC(C)=O)[C@@]2(C)C[C@@H]1N1CCCCC1 [vecuronium bromide] (10.00071805 µM) | 0.0624 |
| NS(=O)(=O)Cc1noc2ccccc12 [zonisamide] (10 µM) | 0.049 |
| O=C(/C=C/c1cccc(S(=O)(=O)Nc2ccccc2)c1)NO [belinostat] (20 µM) | -0.0325 |
| CCCc1nc(C(C)(C)O)c(C(=O)O)n1Cc1ccc(-c2ccccc2-c2nnn[nH]2)cc1 [olmesartan] (10 µM) | 0.0242 |
| CCOC(=O)C(C)(C)Oc1ccc(Cl)cc1 [clofibrate] (10 µM) | -0.0306 |
| CN(C)CCCC1(c2ccc(F)cc2)OCc2cc(C#N)ccc21 (centres undefined) [citalopram] (10 µM) | 0.0578 |
| CCCCN1C[C@H](O)[C@@H](O)[C@H](O)[C@H]1CO [miglustat (hydrochloride)] (10 µM) | 0.0404 |
| CS(=O)(=O)OCCCCOS(C)(=O)=O [busulfan] (20 µM) | 0.0615 |
| CCN(CCO)CCCC(C)Nc1ccnc2cc(Cl)ccc12 (centres undefined) [hydroxychloroquine] (9.99954 µM) | 0.0884 |
| Cc1[nH]nc2c1C(c1cc(CO)cc(-c3ccccc3)c1)(C(C)C)C(C#N)=C(N)O2 (centres undefined) [shin1] (10 µM) | -0.0689 |
| CCC(C)n1ncn(-c2ccc(N3CCN(c4ccc(OCC5COC(Cn6cncn6)(c6ccc(Cl)cc6Cl)O5)cc4)CC3)cc2)c1=O (centres undefined) [itraconazole] (10 µM) | 0.0315 |
| O=C(c1cc(Cc2n[nH]c(=O)c3ccccc23)ccc1F)N1CCN(C(=O)C2CC2)CC1 [olaparib] (10 µM) | 0.0216 |
| CCCCc1oc2ccc(NS(C)(=O)=O)cc2c1C(=O)c1ccc(OCCCN(CCCC)CCCC)cc1 [dronedarone] (10 µM) | -0.0178 |
| C#Cc1cccc(Nc2ncnc3cc(OCCOC)c(OCCOC)cc23)c1 [erlotinib] (20 µM) | 0.00565 |
| N[C@@H]1CONC1=O [d-cycloserine] (10 µM) | 0.0728 |
| CCOC(=O)c1ncn2c1CN(C)C(=O)c1cc(F)ccc1-2 [flumazenil] (10.00035031 µM) | 0.0449 |

Reprinted at random: 2 entries already listed

| SMILES | BRD4 median nuclear fluorescence intensity change (log2) |
| --- | --- |
| Cc1[nH]nc2c1C(c1cc(CO)cc(-c3ccccc3)c1)(C(C)C)C(C#N)=C(N)O2 (centres undefined) [shin1] (10 µM) | -0.0689 |
| CCC(C)n1ncn(-c2ccc(N3CCN(c4ccc(OCC5COC(Cn6cncn6)(c6ccc(Cl)cc6Cl)O5)cc4)CC3)cc2)c1=O (centres undefined) [itraconazole] (10 µM) | 0.0315 |

The list goes on.

| SMILES | BRD4 median nuclear fluorescence intensity change (log2) |
| --- | --- |
| Cc1ccc(NC(=O)c2ccc(CN3CC[C@H](N(C)C)C3)c(C(F)(F)F)c2)cc1Nc1nccc(-c2cncnc2)n1 [bafetinib] (10 µM) | 0.0393 |
| O.O.O.O.O=C([O-])CC(O)(CC(=O)[O-])C(=O)[O-].[Li+].[Li+].[Li+] [lithium citrate] (10 µM) | 0.0359 |
| C[C@](N)(Cc1ccc(O)c(O)c1)C(=O)O [methyldopa] (10 µM) | 0.00989 |
| CC1=C(/C=C/C(C)=C\C=C\C(C)=C\C(=O)O)C(C)(C)CCC1 [alitretinoin] (20 µM) | 0.0795 |
| CCC1(c2ccccc2)C(=O)NCNC1=O [primidone] (10 µM) | -0.023 |
| CCCCN(CCCC)CCC(O)c1cc2c(Cl)cc(Cl)cc2c2cc(C(F)(F)F)ccc12 (centres undefined) [halofantrine] (10 µM) | 0.0962 |
| CNC(=O)c1ccc(N2C(=S)N(c3ccc(C#N)c(C(F)(F)F)c3)C(=O)C2(C)C)cc1F [enzalutamide] (20 µM) | -0.0293 |
| NNc1nncc2ccccc12 [hydralazine] (10 µM) | 0.0119 |
| O=C1CCC(N2C(=O)c3ccccc3C2=O)C(=O)N1 (centres undefined) [thalidomide] (9.40275 µM) | 0.00478 |
| NC(=O)c1cn(Cc2c(F)cccc2F)nn1 [rufinamide] (10 µM) | -0.0016 |
| C[N+](C)(C)CCOC(N)=O [carbachol] (9.99977 µM) | 0.108 |
| O=C1c2c(O)ccc(O)c2C(=O)c2c(NCCNCCO)ccc(NCCNCCO)c21 [mitoxantrone] (0.1144 µM) | -0.043 |
| O=C(O)[C@H]1O[C@@H](Oc2ccc([C@@H]3[C@@H](CC[C@H](O)c4ccc(F)cc4)C(=O)N3c3ccc(F)cc3)cc2)[C@H](O)[C@@H](O)[C@@H]1O [ezetimibe glucuronide] (10 µM) | 0.138 |
| COc1cnc(NS(=O)(=O)c2ccc(N)cc2)nc1 [sulfameter] (10 µM) | 0.0565 |
| Cc1c(OCC(F)(F)F)ccnc1C[S+]([O-])c1nc2ccccc2[nH]1 (centres undefined) [lansoprazole] (10 µM) | 0.0697 |
| Nc1nnc(-c2cccc(Cl)c2Cl)c(N)n1 [lamotrigine] (10 µM) | -0.0208 |
| COc1cc2nc(N3CCN(C(=O)C4CCCO4)CC3)nc(N)c2cc1OC (centres undefined) [terazosin] (10 µM) | 0.0133 |
| NC12CC3CC(CC(C3)C1)C2 [amantadine] (10 µM) | 0.00507 |
| CN(C)c1nc(N(C)C)nc(N(C)C)n1 [altretamine] (20 µM) | -0.0669 |
